These are yes or no findings as the source states them, for the method shown. In cells and extracts the contact can be indirect. Some entries that bind do so weakly or less than the wild type. Tags and fused reporters may be left off the sequences shown. Blank lines part the entries; values can stand above or below the binder they belong to.
Key:
[1] = biological target: T1, DIPA-Myc (UniProt Q6PDY0); assay: co-IP; 293/T cells co-transfected with Flag-ANKRD26-C and a Myc-tagged partner; about 1 mg lysate (20 mM Tris-HCl pH7.5, 150 mM NaCl, 5 mM EDTA, 1% NP40) with 1.5 µg anti-myc antibody 2 hr at 4°C, protein A sepharose; blots with anti-Myc and anti-Flag
T1 sequence: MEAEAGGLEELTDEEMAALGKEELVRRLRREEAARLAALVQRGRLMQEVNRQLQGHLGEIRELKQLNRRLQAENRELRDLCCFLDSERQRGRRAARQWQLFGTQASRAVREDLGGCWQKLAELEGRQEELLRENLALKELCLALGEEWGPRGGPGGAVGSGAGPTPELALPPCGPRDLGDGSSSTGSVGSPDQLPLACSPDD

By UniProt entry, the sequences of proteins in these tests, tags left out.
UniProt Q921N8: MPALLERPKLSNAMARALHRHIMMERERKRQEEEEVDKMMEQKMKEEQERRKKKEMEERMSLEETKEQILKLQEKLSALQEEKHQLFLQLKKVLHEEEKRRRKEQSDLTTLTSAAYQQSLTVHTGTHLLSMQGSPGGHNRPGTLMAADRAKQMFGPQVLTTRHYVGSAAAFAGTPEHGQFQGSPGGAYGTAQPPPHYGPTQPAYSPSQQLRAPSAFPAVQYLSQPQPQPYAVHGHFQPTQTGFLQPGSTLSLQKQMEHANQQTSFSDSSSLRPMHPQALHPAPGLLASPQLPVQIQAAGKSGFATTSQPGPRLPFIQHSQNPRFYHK

[2] = biological target: TRIO-Myc (TRIO interacting region, aa 773–1059) (UniProt Q0KL02); assay: as above
[3] = biological target: GPS2-Myc (UniProt Q921N8); assay: as above
[4] = biological target: T2, HMMR-Myc (UniProt Q00547); assay: as above
T2 sequence: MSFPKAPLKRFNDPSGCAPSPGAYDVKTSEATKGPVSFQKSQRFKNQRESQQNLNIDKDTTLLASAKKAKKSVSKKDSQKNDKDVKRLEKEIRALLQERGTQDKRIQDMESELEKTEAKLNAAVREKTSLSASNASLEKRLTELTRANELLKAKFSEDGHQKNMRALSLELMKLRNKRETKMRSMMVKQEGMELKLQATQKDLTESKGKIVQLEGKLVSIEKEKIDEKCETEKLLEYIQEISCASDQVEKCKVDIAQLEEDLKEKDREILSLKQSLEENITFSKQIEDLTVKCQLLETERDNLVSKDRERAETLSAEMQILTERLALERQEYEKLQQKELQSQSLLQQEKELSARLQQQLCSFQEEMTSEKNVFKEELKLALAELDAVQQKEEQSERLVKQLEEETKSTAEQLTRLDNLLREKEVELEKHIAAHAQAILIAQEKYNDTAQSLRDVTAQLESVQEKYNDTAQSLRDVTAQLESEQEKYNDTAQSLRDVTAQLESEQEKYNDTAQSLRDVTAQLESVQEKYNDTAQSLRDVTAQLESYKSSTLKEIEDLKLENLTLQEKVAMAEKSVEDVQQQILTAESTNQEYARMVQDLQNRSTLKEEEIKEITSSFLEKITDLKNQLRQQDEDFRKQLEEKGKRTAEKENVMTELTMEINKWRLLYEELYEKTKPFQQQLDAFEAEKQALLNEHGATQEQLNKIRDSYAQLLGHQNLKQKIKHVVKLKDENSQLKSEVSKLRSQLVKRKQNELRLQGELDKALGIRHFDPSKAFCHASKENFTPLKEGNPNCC

[5] = biological target: T1, DIPA-Myc; assay: co-IP; data not shown; IP experiment with DIPA-Myc and an EGFP tagged ANKRD26-C construct

binding [1]: binds
binding [2]: binds
binding [3]: binds
binding [4]: binds
B1: Flag-ANKRD26-C (human ANKRD26, 1212–1710 fragment) (domain or fragment, UniProt Q9UPS8 1212-1710)
chain: NEKAEREVVVRQLQQELADTLKKQSMSEASLEVTSRYRINLEDETQDLKKKLGQIRNQLQEAQDRHTEAVRCAEKMQDHKQKLEKDNAKLKVTVKKQMDKIEELQKNLLNANLSEDEKEQLKKLMELKQSLECNLDQEMKKNVELEREITGFKNLLKMTRKKLNEYENGEFSFHGDLKTSQFEMDIQINKLKHKIDDLTAELETAGSKCLHLDTKNQILQEELLSMKTVQKKCEKLQKNKKKLEQEVINLRSHIERNMVELGQVKQYKQEIEERARQEIAEKLKEVNLFLQAQAASQENLEQFRENNFASMKSQMELRIKDLESELSKIKTSQEDFNKTELEKYKQLYLEELKVRKSLSSKLTKTNERLAEVNTKLLVEKQQSRSLFTTLTTRPVMEPPCVGNLNNSLDLNRKLIPRENLVISTSNPRASNNSMENYLSKMQQELEKNITRELKEAAAELESGSIASPLGSTDESNLNQDLVWKASREYVQVLKKNYMI

binding [5]: binds
B2: EGFP tagged ANKRD26-C construct (domain or fragment, UniProt Q9UPS8 1212-1710)
chain: B1 chain

Source: article PMC3364200
